Measured values from paper PMC12480759.
No constants are given. Whether binding was seen depends on the method and setting. In cells and extracts the contact can be indirect. A result given as binding can be weak or reduced; the word gives no strength.

Protein sequences, listed by entry. Tags and fused reporters are not part of them. Lines headed by an entry give the natural chain unless they say otherwise; changes in a name come on top.
UniProt Q13568: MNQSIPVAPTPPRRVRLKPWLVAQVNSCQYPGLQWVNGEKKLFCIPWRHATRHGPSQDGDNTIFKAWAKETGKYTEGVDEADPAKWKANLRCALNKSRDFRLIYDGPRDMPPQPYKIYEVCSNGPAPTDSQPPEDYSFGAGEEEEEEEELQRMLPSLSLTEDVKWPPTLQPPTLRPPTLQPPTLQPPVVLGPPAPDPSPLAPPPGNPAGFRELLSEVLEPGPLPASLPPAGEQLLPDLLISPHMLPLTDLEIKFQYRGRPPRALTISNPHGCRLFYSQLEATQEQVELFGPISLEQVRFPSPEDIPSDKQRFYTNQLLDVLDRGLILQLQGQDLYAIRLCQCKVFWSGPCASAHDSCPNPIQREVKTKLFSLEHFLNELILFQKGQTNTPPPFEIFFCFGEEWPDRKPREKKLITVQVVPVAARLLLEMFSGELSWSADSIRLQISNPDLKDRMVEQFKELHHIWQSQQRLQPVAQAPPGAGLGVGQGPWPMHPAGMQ
UniProt Q99988: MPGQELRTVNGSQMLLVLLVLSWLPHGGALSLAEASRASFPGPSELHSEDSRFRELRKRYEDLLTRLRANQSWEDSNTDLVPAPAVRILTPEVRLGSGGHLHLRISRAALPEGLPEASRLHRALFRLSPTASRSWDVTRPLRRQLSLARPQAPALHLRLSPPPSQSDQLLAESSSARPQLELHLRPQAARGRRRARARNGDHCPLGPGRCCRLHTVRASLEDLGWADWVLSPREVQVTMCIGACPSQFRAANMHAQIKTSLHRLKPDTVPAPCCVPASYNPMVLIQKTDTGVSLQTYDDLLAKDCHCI

Target: Interferon regulatory factor 5 (human (in HNSCC cells)) (UniProt Q13568)
Assay: co-IP; coimmunoprecipitation in HNSCC cells; bait and antibody not stated in the text shown (methods in the Supplementary Materials)

binding: binds
Substance: Growth differentiation factor 15 (from UniProt Q99988)
